Test results as given in PMC10653812.
These are yes or no findings as the source states them, for the method shown. Binding seen in cells or lysates may run through a third protein. Some results given as binding are weak or reduced against the parent protein; the word gives no strength.

Amino acid sequences for entries named in this document (tags omitted).
UniProt B8NLZ3: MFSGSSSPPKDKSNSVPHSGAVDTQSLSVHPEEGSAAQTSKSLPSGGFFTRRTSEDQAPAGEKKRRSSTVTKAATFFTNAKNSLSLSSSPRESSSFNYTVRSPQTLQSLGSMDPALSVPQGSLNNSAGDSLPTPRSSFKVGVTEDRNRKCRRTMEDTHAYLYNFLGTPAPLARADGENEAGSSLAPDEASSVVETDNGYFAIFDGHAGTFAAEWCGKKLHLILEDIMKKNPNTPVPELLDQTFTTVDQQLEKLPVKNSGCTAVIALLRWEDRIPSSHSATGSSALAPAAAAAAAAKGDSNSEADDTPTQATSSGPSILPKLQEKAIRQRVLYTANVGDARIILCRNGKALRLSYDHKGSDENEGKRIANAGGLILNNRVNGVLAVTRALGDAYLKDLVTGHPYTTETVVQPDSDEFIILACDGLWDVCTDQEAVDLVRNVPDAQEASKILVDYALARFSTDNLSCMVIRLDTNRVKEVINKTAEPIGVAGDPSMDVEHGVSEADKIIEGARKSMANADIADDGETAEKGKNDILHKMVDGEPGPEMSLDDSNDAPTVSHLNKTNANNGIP
UniProt A0A7G5KET3: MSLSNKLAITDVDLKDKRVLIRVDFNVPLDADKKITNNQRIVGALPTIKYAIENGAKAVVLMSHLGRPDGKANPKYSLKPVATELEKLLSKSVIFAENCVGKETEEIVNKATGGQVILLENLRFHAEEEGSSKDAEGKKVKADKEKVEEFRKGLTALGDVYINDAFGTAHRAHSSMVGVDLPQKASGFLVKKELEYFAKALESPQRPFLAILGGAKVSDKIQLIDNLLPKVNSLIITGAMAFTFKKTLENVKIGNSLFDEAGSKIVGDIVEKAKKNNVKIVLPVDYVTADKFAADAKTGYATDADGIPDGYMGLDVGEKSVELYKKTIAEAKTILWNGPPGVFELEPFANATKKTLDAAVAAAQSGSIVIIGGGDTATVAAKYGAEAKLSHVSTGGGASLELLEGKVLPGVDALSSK

Key:
[1] = target: Ptc1::eGFP (Aspergillus flavus) (UniProt B8NLZ3); assay: co-IP
[2] = target: Ptc2::eGFP (Aspergillus flavus); assay: co-IP

With “phosphoglycerate kinase 1 (PGK1) (from UniProt A0A7G5KET3 1-417) (enzyme)” the binding [1] was “binds” and the binding [2] was “binds”.
